Some results were stated once for a whole list of compounds, not compound by compound.
How the values were obtained:
Conditions in all cases: added alone, 3.0 points or more
[1] = Sensory evaluation of sweetness intensity in aspartame solution, four reference samples (Experimental Example 22)
Procedure: A negative control aspartame solution (0.063 wt % aspartame solution) was prepared by dissolving aspartame in filtered water.
(§1) A sensory evaluation of sweetness intensity was performed for each sample by a panel of four experts according to the following evaluation criteria.
(§2) Sweetness intensity was evaluated by 0.0 to 10.0 point based on the following reference samples (negative control (hereinafter referred to as NC) (0.0 point); reference 1 (hereinafter referred to as R1) (3.2 points), reference 2 (hereinafter referred to as R2) (5.0 points); reference 3 (hereinafter referred to as R3) (10.0 points)). The average score (rounded to two decimal places) of each expert panelist was calculated. An average score of 3.0 points or more was considered to be functional. • NC (0.0 point): 0.063 wt % aspartame solution (solvent: filtered water) • R1 (3.2 points): 0.063 wt % aspartame solution (solvent: filtered water)+decanoic acid (10 ppb) • R2 (5.0 points): 0.066 wt % aspartame solution (solvent: filtered water) • R3 (10.0 points): 0.069 wt % aspartame solution (solvent: filtered water)

[2] = Sensory evaluation of sweetness intensity in RebM solution (Experimental Examples 20-21)
Procedure: A negative control RebM solution (0.063 wt % RebM solution) was prepared by dissolving RebM in filtered water.
as §1
as §2, with “to 10.0 points based on” for “to 10.0 point based on”, “as R1) (3.0 points), reference” for “as R1) (3.2 points), reference”, “wt % RebM solution (solvent:” for “wt % aspartame solution (solvent:”, “• R1 (3.0 points): 0.063” for “• R1 (3.2 points): 0.063”, “(solvent: filtered water)+dodecanoic acid (1” for “(solvent: filtered water)+decanoic acid (10”, “water)+dodecanoic acid (1 ppb) •” for “water)+decanoic acid (10 ppb) •”
A sensory evaluation of sweetness intensity was performed for each sample by a panel of four experts according to the same evaluation criteria as in Experimental Example 20.

[3] = Sensory evaluation of sweetness intensity in sucralose solution (Experimental Examples 23-24)
Procedure: A negative control sucralose solution (0.0140 wt % sucralose solution) was prepared by dissolving sucralose in filtered water.
as §1
Sweetness intensity was evaluated by 0.0 to 10.0 point based on the following reference samples (negative control (hereinafter referred to as NC) (0.0 point); reference 1 (hereinafter referred to as R1) (3.0 points), reference 2 (hereinafter referred to as R2) (5.0 points); reference 3 (hereinafter referred to as R3) (10.0 points)). The average score (rounded to two decimal places) of each expert panelist was calculated. An average score of 3.0 points or more was considered to be functional. • NC (0.0 point): 0.0140 wt % sucralose solution (solvent: filtered water) • R1 (3.0 points): 0.0164 wt % sucralose solution (solvent: filtered water) • R2 (5.0 points): 0.0180 wt % sucralose solution (solvent: filtered water) • R3 (10.0 points): 0.0220 wt % sucralose solution (solvent: filtered water)
A sensory evaluation of sweetness intensity was performed for each sample by a panel of four experts according to the same evaluation criteria as in Experimental Example 23.

SMILES	concentration at which a sweetness-enhancing effect was confirmed [1] [ppb]	concentration at which a sweetness-enhancing effect was confirmed [2] [ppb]	concentration at which a sweetness-enhancing effect was confirmed [3] [ppb]
CCCCCCCCCCCC(=O)O [dodecanoic acid]	≥ 1	≥ 1	–
CCCCCCCCC(=O)O [nonanoic acid]	≥ 1	≥ 10	–
CCCCCCCC(=O)O [octanoic acid]	–	≥ 1	≥ 100
CCCCCCCCCCC(=O)O [undecanoic acid]	≥ 1	≥ 10	≥ 100

Source: patent US20250302080A1, “SWEETNESS AND/OR FLAVOR ENHANCER” (AJINOMOTO CO., INC., priority 2022, published 2025)
